We go through 40 sequences from article PMC7862700.

Protein sequences, listed by entry. Tags and fused reporters are not part of them. Lines headed by an entry give the natural chain unless they say otherwise; changes in a name come on top.
UniProt P41161: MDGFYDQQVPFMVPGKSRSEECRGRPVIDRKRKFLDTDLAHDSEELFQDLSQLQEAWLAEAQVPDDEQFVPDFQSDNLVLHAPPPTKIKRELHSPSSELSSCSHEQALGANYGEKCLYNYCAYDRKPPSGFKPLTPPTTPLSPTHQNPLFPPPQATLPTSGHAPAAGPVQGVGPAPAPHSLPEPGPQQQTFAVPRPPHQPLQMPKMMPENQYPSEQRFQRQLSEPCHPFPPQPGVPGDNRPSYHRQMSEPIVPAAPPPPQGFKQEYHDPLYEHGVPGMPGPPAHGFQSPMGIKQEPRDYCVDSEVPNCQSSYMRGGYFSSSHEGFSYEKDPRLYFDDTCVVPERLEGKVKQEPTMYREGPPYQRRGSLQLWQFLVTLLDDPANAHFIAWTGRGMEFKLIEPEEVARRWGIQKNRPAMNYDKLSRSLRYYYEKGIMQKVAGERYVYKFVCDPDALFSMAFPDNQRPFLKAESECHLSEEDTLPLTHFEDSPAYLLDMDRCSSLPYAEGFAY
UniProt Q99607: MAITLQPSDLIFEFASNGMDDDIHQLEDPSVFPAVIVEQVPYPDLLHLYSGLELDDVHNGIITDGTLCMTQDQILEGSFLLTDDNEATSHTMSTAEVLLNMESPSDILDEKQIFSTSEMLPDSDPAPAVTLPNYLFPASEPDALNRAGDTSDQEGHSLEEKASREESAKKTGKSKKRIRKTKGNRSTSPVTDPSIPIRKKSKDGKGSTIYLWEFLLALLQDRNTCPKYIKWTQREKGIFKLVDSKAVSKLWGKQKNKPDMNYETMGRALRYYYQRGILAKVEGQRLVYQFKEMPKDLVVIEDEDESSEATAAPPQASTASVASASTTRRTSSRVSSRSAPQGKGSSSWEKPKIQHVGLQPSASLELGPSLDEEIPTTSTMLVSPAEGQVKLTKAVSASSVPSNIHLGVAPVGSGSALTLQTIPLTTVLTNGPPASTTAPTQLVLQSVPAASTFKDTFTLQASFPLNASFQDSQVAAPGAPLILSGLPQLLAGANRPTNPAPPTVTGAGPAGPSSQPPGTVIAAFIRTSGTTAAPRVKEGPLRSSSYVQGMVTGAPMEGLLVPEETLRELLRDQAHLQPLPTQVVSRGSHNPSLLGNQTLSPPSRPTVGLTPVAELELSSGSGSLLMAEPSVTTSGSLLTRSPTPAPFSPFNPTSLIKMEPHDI

Only a part is listed here, and it is no random draw. At the low end of the ranking, values are background and their order means little.

For one test, the target named is T1, FLI1 (UniProt Q01543).
T1 sequence: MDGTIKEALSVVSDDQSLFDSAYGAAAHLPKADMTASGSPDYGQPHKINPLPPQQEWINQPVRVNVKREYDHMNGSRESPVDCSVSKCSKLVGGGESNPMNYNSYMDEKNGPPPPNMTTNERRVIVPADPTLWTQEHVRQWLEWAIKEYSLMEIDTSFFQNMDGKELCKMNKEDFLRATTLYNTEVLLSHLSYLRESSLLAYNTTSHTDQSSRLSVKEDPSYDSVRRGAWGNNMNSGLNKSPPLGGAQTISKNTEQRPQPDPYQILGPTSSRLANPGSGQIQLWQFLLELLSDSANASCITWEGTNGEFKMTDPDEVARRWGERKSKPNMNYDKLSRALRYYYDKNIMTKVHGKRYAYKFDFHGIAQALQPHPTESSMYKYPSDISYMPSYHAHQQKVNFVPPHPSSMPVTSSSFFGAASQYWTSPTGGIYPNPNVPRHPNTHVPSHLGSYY
In words: DAPPL (digital affinity profiling via proximity ligation, sequencing). Conditions: 10 mM Tris-HCl pH 7.5, 50 mM NaCl, 1 mM DTT, 4% glycerol, room temperature, 30 min; GST-TFs on glutathione beads, 16-mer random dsDNA library, 0.1% …; high values mean tight binding; double strand, one strand shown; scale: fold enrichment (6-mer frequency, TF over GST control).
ACACCG came in with a binding signal of 1.
Take TCAAAT: the binding signal came out at 1.04.
CTAGCG gave a binding signal of 0.956.
Still for that read-out and setting: next, GATATT: 1.11; TGATAA: 0.964.
On the same count and under the same terms, as for CTTGGC, the figure is 1.19; as for TTGTTG, 1.03.
Still for that read-out and setting: next, TATACC: 1.29; AATATA: 1.28; ATTCGC: 1.18.
On to GCTGGT, for which the binding signal was found to be 1.29.
The sequence ACTATT came in with a binding signal of 1.29.
The same measure, in the same setting: next, AACTAG: 1.06; GCAGCT: 0.999.
The same measure, in the same setting: next, ATTCAC: 1.23; CCCCTT: 1.48.
In turn, ACGTCC had a binding signal of 1.59.
The same measure, in the same setting: as for CCGCTC, the figure is 1.53; as for GCTCTA, 1.17; as for CCTAAG, 1.09.
On the same count and under the same terms, as for TGACAA, the figure is 1.18; as for ACGGCT, 1.02.
Same read-out and setting: as for TAGCAA, the figure is 1.15; as for CAGCTC, 0.909.
In turn, AAAATA had a binding signal of 1.17.
Still for that read-out and setting: as for CCACTC, the figure is 1.23; as for AGTCCT, 1; as for CATCTC, 1.42.
In turn, CAATAG displayed a binding signal of 1.07.
The same measure, in the same setting: as for CGCCGC, the figure is 1.35; as for AATTCG, 1.29.
Same read-out and setting: as for ACACTC, the figure is 1.04; as for CTACAT, 1.43; as for CCGCAA, 1.27.
On the same count and under the same terms, as for CCGGCG, the figure is 0.918; as for TTTTCG, 1.18.
Consider CGACTG, for which the binding signal was 0.999.
The same measure, in the same setting: as for CCTCGA, the figure is 1.33; as for ATTACA, 1.14.
On the same count and under the same terms, next, TTCCCA: 1.18.

The target in the next test is ETV5 (UniProt P41161). The test is described as above. As to conditions: 10 mM Tris-HCl pH 7.5, 50 mM NaCl, 1 mM DTT, 4% glycerol, room temperature, 30 min; GST-TFs on glutathione beads, 16-mer random dsDNA library, 0.1% …; high values mean tight binding; double strand, one strand shown; scale: fold enrichment (6-mer frequency, TF over GST control).
In turn, ACACCG showed a binding signal of 0.917.
The same measure, in the same setting: next, TCAAAT: 1.09.
Still for that read-out and setting: as for CTAGCG, the figure is 1.22; as for GATATT, 1.14; as for TGATAA, 0.972.
On the same count and under the same terms, as for CTTGGC, the figure is 1.1.
With TTGTTG, the binding signal came to 1.08.
In the case of TATACC, the binding signal was found to be 1.09.
Still for that read-out and setting: as for AATATA, the figure is 1.33; as for ATTCGC, 1.13.
Still for that read-out and setting: next, GCTGGT: 0.968.
In the case of ACTATT, the binding signal turned out to be 1.22.
With AACTAG, the binding signal was 1.15.
Still for that read-out and setting: next, GCAGCT: 1.08.
Still for that read-out and setting: as for ATTCAC, the figure is 1.21; as for CCCCTT, 1.62; as for ACGTCC, 1.65.
Still for that read-out and setting: as for CCGCTC, the figure is 1.46; as for GCTCTA, 1.21.
On to CCTAAG, for which the binding signal worked out at 1.2.
Still for that read-out and setting: as for TGACAA, the figure is 1.22; as for ACGGCT, 1.13; as for TAGCAA, 1.33.
For CAGCTC, the binding signal amounted to 0.966.
Sequence AAAATA displayed a binding signal of 1.17.
Still for that read-out and setting: next, CCACTC: 1.23; AGTCCT: 1.05.
Same read-out and setting: next, CATCTC: 1.29; CAATAG: 1.11.
The same measure, in the same setting: next, CGCCGC: 1.13; AATTCG: 1.31.
ACACTC gave a binding signal of 1.04.
Same read-out and setting: next, CTACAT: 1.45; CCGCAA: 1.3; CCGGCG: 0.939.
Still for that read-out and setting: next, TTTTCG: 1.27; CGACTG: 1.06.
CCTCGA had a binding signal of 1.27.
With ATTACA, the binding signal worked out at 1.07.
The same measure, in the same setting: as for TTCCCA, the figure is 1.29.

For a further test, the target named is ELF4 (UniProt Q99607). The description is as above. Conditions: 10 mM Tris-HCl pH 7.5, 50 mM NaCl, 1 mM DTT, 4% glycerol, room temperature, 30 min; GST-TFs on glutathione beads, 16-mer random dsDNA library, 0.1% …; high values mean tight binding; double strand, one strand shown; scale: fold enrichment (6-mer frequency, TF over GST control).
The sequence TCAAAT registered a binding signal of 0.997.
Still for that read-out and setting: next, CTAGCG: 1.1.
In turn, GATATT yielded a binding signal of 1.12.
The same measure, in the same setting: next, TGATAA: 1.07.
Same read-out and setting: next, CTTGGC: 1.21.
Same read-out and setting: as for TTGTTG, the figure is 1.21; as for GCTGGT, 1.11; as for ACTATT, 1.3.
The sequence ATTCAC returned a binding signal of 1.31.
GCTCTA showed a binding signal of 1.21.
As for CCTAAG, the binding signal is 1.26.
The same measure, in the same setting: as for AAAATA, the figure is 1.17; as for CCACTC, 1.29.
The same measure, in the same setting: as for AGTCCT, the figure is 0.987.
The same measure, in the same setting: next, CATCTC: 1.26.
Consider CTACAT, for which the binding signal was determined as 1.37.
For CCGGCG, the binding signal was 0.935.
Still for that read-out and setting: next, CGACTG: 0.998.
